# Data as given in PubChem BioAssay AID652243 (Drosophila RNAi Screening Center, 2013).
# Test: 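Fly regulators of androgen-dependent reporter output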 (primary screen)
# Cells: Drosophila S2R+ cells
# Reagent: long dsRNA against Drosophila genes
# Duration: 72 h (48 h, then 24 h hormone)
# Treatment: synthetic androgen R1881 at 10 nM for 24 h
# Detection: 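Per-well raw luminescence of the androgen-driven firefly reporter and of the Renilla control, two replicates each, without normalisation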
# Direction: firefly reporter light: higher = more light from androgen-responsive reporter; Renilla control light: higher = more constitutive control signal (cell number, transfection)
# Active means: 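Across duplicate plates, a knock-down whose log firefly/Renilla ratio shifted a set fold down or up from the GFP/LacZ control mean was a hit; the downward cut appears as both 1.5 and 3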
# Calls: active = hit: reporter lowered or raised; inactive = no hit
# The deposit covers about 24,000 reagents; this is a random part of those that have a named target and a result. In the full data, 246 (1%) got an active call. 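Plates not normalised; calls are printed but the firefly/Renilla ratio behind them is not deposited; fold cut for lowering reported inconsistently.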 Raw values are not corrected between plates. Names joined by + are all predicted targets of the reagent. The record does not give: the amount of reagent.
target,amplicon,"firefly reporter light, replicate 1","firefly reporter light, replicate 2","Renilla control light, replicate 1","Renilla control light, replicate 2",Outcome
CG6893,DRSC10742,2.29e5,1.81e5,2.21e6,2.34e6,inactive
TRAM,DRSC18178,2.34e5,3.39e5,4.69e6,3.75e6,inactive
TRAM,DRSC18651,2.08e5,2.45e5,2.73e6,1.74e6,inactive
CG2310,DRSC15438,1.73e5,1.18e5,1.97e6,2.25e6,inactive
Ir52b (Ionotropic receptor 52b),DRSC06263,87581,86597,9.33e5,9.33e5,inactive
neo (neyo),DRSC16316,52866,26609,5.72e5,3.52e5,inactive
neo (neyo),DRSC24164,6.21e5,6.64e5,9.64e5,9.51e5,inactive
CG34130,DRSC38651,7.41e5,7.62e5,2.03e6,2.48e6,inactive
CG14325,DRSC14804,88985,1.14e5,1.01e6,1.37e6,inactive
GstD10 (Glutathione S transferase D10),DRSC15346,1.29e5,1.55e5,2.35e6,2.83e6,inactive
GstD10 (Glutathione S transferase D10),DRSC25140,6.24e5,3.30e5,5.39e5,4.10e5,inactive
CG4036,DRSC02735,7.88e5,7.62e5,2.04e6,1.95e6,inactive
to (takeout),DRSC17086,1.76e5,2.39e5,2.41e6,2.49e6,inactive
to (takeout),DRSC29075,4.26e5,4.91e5,1.32e6,1.30e6,inactive
e(y)2 (enhancer of yellow 2),DRSC19640,8.29e5,7.79e5,3.35e6,2.89e6,inactive
CG9395,DRSC03218,2.16e5,1.91e5,1.24e6,1.54e6,inactive
CG9395,DRSC26576,3.26e5,2.41e5,6.94e5,6.12e5,inactive
CG3107,DRSC04888,1.25e6,9.80e5,2.29e6,1.63e6,inactive
Ulp1,DRSC19339,1.48e5,1.07e5,1.03e6,8.81e5,inactive
"Nsun2 (NOP2-Sun domain family, member 2)",DRSC18662,5.44e5,8.02e5,1.80e6,2.36e6,inactive
"Nsun2 (NOP2-Sun domain family, member 2)",DRSC28657,5.15e5,5.40e5,1.53e6,1.54e6,inactive
Ddx56 (DEAD-box helicase 56),DRSC20567,1.22e5,1.54e5,5.85e5,4.66e5,inactive
Ddx56 (DEAD-box helicase 56),DRSC26165,2.76e5,2.19e5,6.73e5,5.66e5,inactive
Vsx2 (Visual system homeobox 2),DRSC18088,3.51e5,5.35e5,2.85e6,2.45e6,inactive
Vsx2 (Visual system homeobox 2),DRSC23089,8.20e5,8.63e5,8.51e5,9.04e5,inactive
Vsx2 (Visual system homeobox 2),DRSC23273,5.53e5,6.59e5,8.72e5,9.96e5,inactive
CG14410,DRSC19596,5.43e5,6.22e5,3.12e6,2.81e6,inactive
Obp56d (Odorant-binding protein 56d),DRSC06064,71836,96195,7.90e5,1.20e6,inactive
CG5568,DRSC10518,4.53e5,3.58e5,3.06e6,2.87e6,inactive
CG5568,DRSC22816,6.06e5,9.50e5,1.06e6,1.79e6,inactive
CG5568,DRSC24887,5.28e5,9.52e5,5.82e5,7.14e5,inactive
Nmnat (Nicotinamide mononucleotide adenylyltransferase),DRSC14644,1.84e5,1.53e5,2.40e6,2.52e6,inactive
Nmnat (Nicotinamide mononucleotide adenylyltransferase),DRSC26899,5.51e5,5.17e5,6.26e5,5.98e5,inactive
MP1 (Melanization Protease 1),DRSC12124,8.29e5,1.02e6,1.95e6,2.24e6,inactive
MP1 (Melanization Protease 1),DRSC28577,4.22e5,8.66e5,7.48e5,1.54e6,inactive
CG9953,DRSC11106,1.12e5,86992,1.11e6,1.15e6,inactive
Acp65Aa (Adult cuticle protein 65Aa),DRSC09663,1.55e5,1.16e5,2.16e6,1.55e6,inactive
Acp65Aa (Adult cuticle protein 65Aa),DRSC26708,3.62e5,2.51e5,6.16e5,6.33e5,inactive
shakB (shaking B),DRSC20423,6.36e5,1.01e6,3.37e6,1.57e6,inactive
shakB (shaking B),DRSC20585,2.73e5,1.68e5,8.64e5,6.66e5,inactive
shakB (shaking B),DRSC21445,6.84e5,8.82e5,2.07e6,1.67e6,inactive
shakB (shaking B),DRSC22817,6.20e5,1.08e6,1.25e6,1.94e6,inactive
shakB (shaking B),DRSC26262,3.69e5,4.40e5,3.38e5,7.52e5,inactive
RpL12 (Ribosomal protein L12),DRSC04344,3.52e5,3.10e5,1.31e6,1.31e6,inactive
CG32944,DRSC12138,50194,96820,1.07e6,1.13e6,inactive
CG32944,DRSC12341,80783,93816,1.53e6,1.58e6,inactive
CG32944,DRSC37081,,,,,inactive
CG17707,DRSC20650,2.05e5,2.20e5,5.74e5,5.51e5,inactive
MED16 (Mediator complex subunit 16),DRSC04506,1.67e5,2.37e5,1.52e6,1.65e6,inactive
MED16 (Mediator complex subunit 16),DRSC26633,2.64e5,2.73e5,4.99e5,4.49e5,inactive
meso18E,DRSC20351,1.50e5,1.60e5,5.70e5,4.40e5,inactive
meso18E,DRSC25315,3.14e5,2.27e5,5.07e5,4.33e5,inactive
CG6788 + CR32496,DRSC22043,9.34e5,7.51e5,2.69e6,1.77e6,inactive
CG40005 (retired record) + cta,DRSC03763,5.87e5,6.69e5,8.31e5,6.34e5,inactive
Pus1 (Pseudouridine synthase 1),DRSC15548,2.52e5,2.87e5,4.43e6,4.23e6,inactive
Pus1 (Pseudouridine synthase 1),DRSC27461,2.21e5,2.42e5,5.83e5,6.80e5,inactive
CG10209,DRSC05980,1.12e6,8.03e5,2.98e6,2.40e6,inactive
CG14540,DRSC14884,1.15e5,1.35e5,1.76e6,2.24e6,inactive
CG14540,DRSC25080,8.27e5,1.17e6,9.54e5,9.03e5,inactive
CG14540,DRSC39076,1.06e6,8.51e5,2.10e6,1.62e6,inactive
Ziz (Zizimin),DRSC02506,2.23e5,2.33e5,2.37e6,2.23e6,inactive
Ziz (Zizimin),DRSC02976,2.09e5,1.39e5,1.72e6,1.07e6,inactive
CG10011,DRSC14174,1.10e5,83034,6.32e5,3.75e5,inactive
GstE10 (Glutathione S transferase E10),DRSC06671,71172,1.00e5,1.32e6,1.32e6,inactive
GstE10 (Glutathione S transferase E10),DRSC28568,3.79e5,5.49e5,8.06e5,1.53e6,inactive
Tsp42Ec (Tetraspanin 42Ec),DRSC06192,2.03e5,2.04e5,1.36e6,1.75e6,inactive
Tsp42Ec (Tetraspanin 42Ec),DRSC26768,4.40e5,2.99e5,1.01e6,7.19e5,inactive
Nse1 (Non-SMC element 1),DRSC02147,9.84e5,1.23e6,1.58e6,1.80e6,inactive
ACXD (Adenylyl cyclase X D),DRSC07843,40559,48304,8.67e5,8.62e5,inactive
ACXD (Adenylyl cyclase X D),DRSC23762,5.93e5,5.73e5,7.55e5,8.99e5,inactive
"ATPsyndelta (ATP synthase, delta subunit)",DRSC18248,1.56e5,2.32e5,2.12e6,2.92e6,inactive
snRNA:U3 (retired record),DRSC37894,7.21e5,8.29e5,1.41e6,1.48e6,inactive
CG13739,DRSC23200,8.19e5,6.26e5,9.17e5,7.95e5,inactive
CG13739,DRSC28741,3.53e5,3.66e5,8.98e5,9.91e5,inactive

Reformatted: entries from further up
GstE10 (Glutathione S transferase E10) [DRSC06671] → firefly reporter light, replicate 1: 71172; firefly reporter light, replicate 2: 1.00e5; Renilla control light, replicate 1: 1.32e6; Renilla control light, replicate 2: 1.32e6; Outcome: inactive
GstE10 (Glutathione S transferase E10) [DRSC28568] → firefly reporter light, replicate 1: 3.79e5; firefly reporter light, replicate 2: 5.49e5; Renilla control light, replicate 1: 8.06e5; Renilla control light, replicate 2: 1.53e6; Outcome: inactive
Tsp42Ec (Tetraspanin 42Ec) [DRSC06192] → firefly reporter light, replicate 1: 2.03e5; firefly reporter light, replicate 2: 2.04e5; Renilla control light, replicate 1: 1.36e6; Renilla control light, replicate 2: 1.75e6; Outcome: inactive
Tsp42Ec (Tetraspanin 42Ec) [DRSC26768] → firefly reporter light, replicate 1: 4.40e5; firefly reporter light, replicate 2: 2.99e5; Renilla control light, replicate 1: 1.01e6; Renilla control light, replicate 2: 7.19e5; Outcome: inactive
Nse1 (Non-SMC element 1) [DRSC02147] → firefly reporter light, replicate 1: 9.84e5; firefly reporter light, replicate 2: 1.23e6; Renilla control light, replicate 1: 1.58e6; Renilla control light, replicate 2: 1.80e6; Outcome: inactive
ACXD (Adenylyl cyclase X D) [DRSC07843] → firefly reporter light, replicate 1: 40559; firefly reporter light, replicate 2: 48304; Renilla control light, replicate 1: 8.67e5; Renilla control light, replicate 2: 8.62e5; Outcome: inactive
ACXD (Adenylyl cyclase X D) [DRSC23762] → firefly reporter light, replicate 1: 5.93e5; firefly reporter light, replicate 2: 5.73e5; Renilla control light, replicate 1: 7.55e5; Renilla control light, replicate 2: 8.99e5; Outcome: inactive
ATPsyndelta (ATP synthase, delta subunit) [DRSC18248] → firefly reporter light, replicate 1: 1.56e5; firefly reporter light, replicate 2: 2.32e5; Renilla control light, replicate 1: 2.12e6; Renilla control light, replicate 2: 2.92e6; Outcome: inactive
snRNA:U3 (retired record) [DRSC37894] → firefly reporter light, replicate 1: 7.21e5; firefly reporter light, replicate 2: 8.29e5; Renilla control light, replicate 1: 1.41e6; Renilla control light, replicate 2: 1.48e6; Outcome: inactive
CG13739 [DRSC23200] → firefly reporter light, replicate 1: 8.19e5; firefly reporter light, replicate 2: 6.26e5; Renilla control light, replicate 1: 9.17e5; Renilla control light, replicate 2: 7.95e5; Outcome: inactive
